From patent US12006294B2, “Therapeutic compounds” (REGENTS OF THE UNIVERSITY OF MINNESOTA, priority 2017, dated 2024)
Entries after “also recorded” stand apart in the source; their conditions may differ.

Assay: Body temperature measurement (hypothermic action of acetaminophen)
Conditions: combination of low dose with acetaminophen, FIG. 10C; acetate

N=C(N)N/N=C/c1c(Cl)cccc1Cl [BC1-45-1, guanabenz, acetate]
effect on hypothermic action of acetaminophen (body temperature): does not have any effect on the hypothermic effect of acetaminophen; also recorded: did not have any effect on the hypothermic action of acetaminophen
